Results published in patent US9045493B2, “Furo[3,2-b]- and thieno[3,2-b]pyridin derivatives” (Merck Patent GmbH, priority 2012, dated 2015).

Chains of the proteins cited; added tags and fusions are not shown.
UniProt Q9UHD2, whole entry: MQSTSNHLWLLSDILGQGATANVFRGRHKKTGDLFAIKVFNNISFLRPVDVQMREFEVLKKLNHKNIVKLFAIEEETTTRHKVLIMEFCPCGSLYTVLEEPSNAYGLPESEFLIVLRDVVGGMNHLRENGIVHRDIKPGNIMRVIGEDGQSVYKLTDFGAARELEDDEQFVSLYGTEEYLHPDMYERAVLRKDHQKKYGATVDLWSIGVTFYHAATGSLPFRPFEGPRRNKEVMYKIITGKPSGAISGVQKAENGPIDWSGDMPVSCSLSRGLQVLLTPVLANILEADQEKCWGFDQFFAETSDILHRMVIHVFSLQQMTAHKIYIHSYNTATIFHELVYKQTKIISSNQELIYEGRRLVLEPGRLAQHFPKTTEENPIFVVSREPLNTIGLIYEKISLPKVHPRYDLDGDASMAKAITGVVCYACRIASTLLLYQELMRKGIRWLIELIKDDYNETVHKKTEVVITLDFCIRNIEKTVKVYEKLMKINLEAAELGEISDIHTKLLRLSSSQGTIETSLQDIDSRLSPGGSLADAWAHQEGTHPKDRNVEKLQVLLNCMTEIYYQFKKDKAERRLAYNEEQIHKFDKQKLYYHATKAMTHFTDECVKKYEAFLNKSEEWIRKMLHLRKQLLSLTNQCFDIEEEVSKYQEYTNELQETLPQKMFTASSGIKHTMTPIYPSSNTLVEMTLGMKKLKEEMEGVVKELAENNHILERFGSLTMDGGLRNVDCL
UniProt Q14164, whole entry: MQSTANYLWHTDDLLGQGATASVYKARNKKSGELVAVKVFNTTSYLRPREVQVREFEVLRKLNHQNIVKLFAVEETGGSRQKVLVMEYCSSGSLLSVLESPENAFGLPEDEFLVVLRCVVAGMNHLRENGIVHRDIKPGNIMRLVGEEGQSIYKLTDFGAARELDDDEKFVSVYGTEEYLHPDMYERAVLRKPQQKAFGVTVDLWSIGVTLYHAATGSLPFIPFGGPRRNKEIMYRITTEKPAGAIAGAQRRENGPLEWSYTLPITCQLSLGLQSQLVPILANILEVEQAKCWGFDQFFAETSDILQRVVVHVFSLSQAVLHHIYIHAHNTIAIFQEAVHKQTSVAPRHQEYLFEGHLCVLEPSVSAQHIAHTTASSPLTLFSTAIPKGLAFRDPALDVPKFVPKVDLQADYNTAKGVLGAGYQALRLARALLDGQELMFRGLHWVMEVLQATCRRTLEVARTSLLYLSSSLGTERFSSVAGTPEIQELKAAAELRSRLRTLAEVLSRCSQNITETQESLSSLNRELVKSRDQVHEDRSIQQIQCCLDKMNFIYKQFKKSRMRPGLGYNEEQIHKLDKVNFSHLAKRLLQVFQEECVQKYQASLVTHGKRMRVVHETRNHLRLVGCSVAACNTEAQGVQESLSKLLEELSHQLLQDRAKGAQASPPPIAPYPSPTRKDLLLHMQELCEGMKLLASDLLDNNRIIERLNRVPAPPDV

Assays:
[1] = molecular target: TANK binding kinase (TBK1) (Homo sapiens, UniProt Q9UHD2); test: TBK1 enzyme assay (384-well Flashplate kinase assay); type: biochemical; details: read-out: TBK1 enzyme assay IC50; 10 μM ATP, 120 Min at 30° C.
Experimental: The kinase assay is performed as 384-well Flashplate assay (for e.g. Topcount measurement.
0.6 nM TANK binding kinase (TBK1), 800 nM biotinylated MELK-derived peptide (Biotin-Ah-Ah-[…]) and 10 μM ATP (spiked with 0.25 μCi ^33P-ATP/well) are incubated in a total volume of 50 μl (10 mM MOPS, 10 mM Mg-acetat, 0.1 mM EGTA, 1 mM DTT, 0.02% Brij35, 0.1% BSA, pH 7.5) with or without test compound for 120 Min at 30° C. The reaction is stopped with 25 μl 200 mM EDTA. After 30 Min at room temperature the liquid is removed and each well washed thrice with 100 μl 0.9% sodium chloride solution. Nonspecific reaction is determined in presence of 100 nM Staurosporine. Radioactivity is measured in a Topcount (PerkinElmer). Results (e.g. IC50-values) are calculated with program tools provided by the IT-department (e.g. AssayExplorer, Symyx).

IKKε = IKKε (Homo sapiens, UniProt Q14164); test: IKKε kinase assay (384-well Flashplate); details: read-out: IKKε enzyme assay IC50; 10 μM ATP, 2 hours at 30° C.

Question: Which results are given for `COc1cc(-c2cc3nccc(-c4ccc(OC5CCOCC5)c(C#N)c4)c3o2)ccc1C(=O)N1CCCNC(=O)C1`?
Answer: IC50 [1]: < 300 nM; IC50 (IKKε): < 300 nM

The structures given here were assigned with low confidence; some may be wrong.
